{"source": "paper PMC4747989", "about": "(Cancer Nanotechnology, 2016)", "experiment": "peptide made by a vendor", "conditions": "whole synthesis"}
{"substance": "FITC-tagged Pep-A", "values": [{"measurement": "final HPLC purity", "result": "~95", "unit": "%"}]}
